Values after ≈ are worked out from the molar mass of the structure shown. The list shows a part of the results. Shown are side measurements of this screen, not its main read-out; they come without a call. Starred links: 1 amine or outer side, 2 acyl side, 3 side chain; linkers in the order of their positions; H or OH if unused. Positions of bridges follow the written chain, without caps; N, C: chain ends. Non-standard residues stand in square brackets, D forms with d. Residues, ends and D or L forms follow the SMILES beside them. *: point of attachment. X2 = NC1=N[C@@H]([C@H](N[*:1])C(=O)[*:2])C[C@H](O)N1; ΔAla(Z-3-ureido) = NC(=O)N/C=C(\N)C(=O)O; β3hOrn = NCCC[C@H](N)CC(=O)*; Dap = NC[C@H](N)C(=O)O
assay: Mycobacterium tuberculosis H37Rv growth inhibition, confirmatory dose response, cytotoxicity (AID 1332);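 as to CC50: Vero cells exposed to compounds for 72 hours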;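 as to IC50: bacteria incubated 7 days before adding Alamar blue readout reagent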; details: M. tuberculosis H37Rv growth inhibition; CC50: measured here: Vero cell cytotoxicity; IC50: measured here: IC50 H37Rv replicates

Structure (SMILES) | IC50 | CC50
NNC(=O)c1ccncc1 | < 0.04 µg/mL | 
CC1(C)O[C@@H]2C[C@H]3[C@@H]4C[C@H](F)C5=CC(=O)CC[C@]5(C)[C@H]4[C@@H](O)C[C@]3(C)[C@]2(C(=O)CO)O1 | > 20 µg/mL | 
C=CCN1CC[C@]23c4c5ccc(O)c4O[C@H]2C(=O)CC[C@@]3(O)[C@H]1C5 | > 20 µg/mL | 
CN1CCCN=C1/C=C/c1cccs1 | > 20 µg/mL | 
CC12CC3CC(C)(C1)CC(N)(C3)C2 | > 20 µg/mL | > 6 µg/mL
C#C[C@]1(O)CC[C@H]2[C@@H]3CCC4=Cc5oncc5C[C@]4(C)[C@H]3CC[C@@]21C | > 20 µg/mL | 
O=C(Nc1ccc([N+](=O)[O-])cc1Cl)c1cc(Cl)ccc1O | 0.0695 µg/mL (≈ 0.212 µM) | 0.188 µg/mL (≈ 0.575 µM)
CN1Cc2c(ccc3c2OCO3)[C@@H]2[C@H]1c1cc3c(cc1C[C@@H]2O)OCO3 | > 20 µg/mL | 2.81 µg/mL (≈ 7.96 µM)
C[N+]1([O-])[C@@H]2CC(OC(=O)[C@H](CO)c3ccccc3)C[C@H]1[C@@H]1O[C@@H]12 (some centres not stated) | > 20 µg/mL | 
CCN(CC)CCNC(=O)c1cc(Br)c(N)cc1OC | > 20 µg/mL | 
OC(CCN1CCCCC1)(c1ccccc1)c1ccccc1 | > 20 µg/mL | 
COc1c2c(cc3c1OCO3)CCN(C)C2 | > 20 µg/mL | 
C#CC1(O)CC[C@H]2[C@@H]3CCC4=CCCC[C@@H]4[C@H]3CC[C@@]21C (some centres not stated) | > 20 µg/mL | > 6 µg/mL
C[N+](C)(C)CCOC(N)=O | > 20 µg/mL | 
CCOC(=O)C1=C(C)NC(C)=C(C(=O)OC)C1c1cccc(Cl)c1Cl (configuration not stated) | > 20 µg/mL | 
C[C@H](CCC(=O)O)[C@H]1CC[C@H]2[C@@H]3C(=O)C[C@@H]4CC(=O)CC[C@]4(C)[C@H]3CC(=O)[C@]12C | > 20 µg/mL | 
CC(=O)O[C@H]1C[C@@H]2CC[C@@H]3[C@H](CC[C@@]4(C)[C@H]3C[C@H]([N+]3(C)CCCCC3)[C@@H]4OC(C)=O)[C@@]2(C)C[C@@H]1[N+]1(C)CCCCC1 | > 20 µg/mL | 
O=C1c2c(O)ccc(O)c2C(=O)c2c(NCCNCCO)ccc(NCCNCCO)c21 | > 20 µg/mL | 0.255 µg/mL (≈ 0.574 µM)
O=C(O)CCC(=O)c1ccc(-c2ccccc2)cc1 | > 20 µg/mL | 
CN1CCN2c3ccccc3Cc3ccccc3C2C1 (configuration not stated) | > 20 µg/mL | 
N[C@@H](Cc1ccc(O)c(O)c1)C(=O)O | > 20 µg/mL | 
N=c1nc(N2CCCCC2)cc(N)n1O | > 20 µg/mL | 
Cc1cc(C=Cc2ccc3cc(N(C)C)ccc3[n+]2C)c(C)n1-c1ccccc1 | 0.145 µg/mL | 0.262 µg/mL
O=c1c2ccccc2[se]n1-c1ccccc1 | 2.02 µg/mL (≈ 7.38 µM) | 
CCCNC(C)(C)COC(=O)c1ccccc1 | > 20 µg/mL | 

Structure (SMILES) | IC50 | CC50
CCC1(C)CC(=O)NC1=O (configuration not stated) | > 20 µg/mL | 
CN(C)CCOC(=O)C(c1ccccc1)C1(O)CCCC1 (configuration not stated) | > 20 µg/mL | 
CC1=CC(=O)C2=C(C)CC[C@@H]3[C@H](OC(=O)[C@H]3C)[C@@H]12 | > 20 µg/mL | 
CCc1cc(Cl)c(OC)c(C(=O)NC[C@@H]2CCCN2CC)c1O | > 20 µg/mL | 
CCC(=O)O[C@]1(C(=O)SCF)[C@H](C)C[C@H]2[C@@H]3C[C@H](F)C4=CC(=O)C=C[C@]4(C)[C@@]3(F)[C@@H](O)C[C@@]21C | > 20 µg/mL | 
Nc1[nH]c(=O)ncc1F | > 20 µg/mL | 
NCC(O)c1ccc(O)cc1 (configuration not stated) | > 20 µg/mL | 
NC(N)=NCCCCN=C(N)N | > 20 µg/mL | 
CC[N+](C)(CC)CCC[n+]1c(-c2ccccc2)c2cc(N)ccc2c2ccc(N)cc21 | > 20 µg/mL | 
O=C(O)c1ccccc1Nc1cccc(C(F)(F)F)c1 | > 20 µg/mL | 
O=C1O[C@H]([C@@H](O)CO)C(O)=C1O | > 20 µg/mL | 
O=c1c(O)c(-c2ccc(O)c(O)c2)oc2cc(O)cc(O)c12 | > 20 µg/mL | 
CN(C)[C@@H]1CCCCC(OC2c3ccccc3CCc3ccccc32)C1 (some centres not stated) | > 18.7 µg/mL | > 6 µg/mL
COCCc1ccc(OCC(O)CNC(C)C)cc1 (configuration not stated) | > 20 µg/mL | 
CCCCC[C@H](O)/C=C/[C@H]1[C@H](O)CC(=O)[C@@H]1CCCCCCC(=O)O | > 20 µg/mL | 
CCOc1ccc(NC(C)=O)cc1 | > 20 µg/mL | 
CC(C(=O)O)c1ccc(C(=O)c2cccs2)cc1 (configuration not stated) | > 20 µg/mL | 
C#C[C@]1(O)CC[C@H]2[C@@H]3CCC4=C(CCC(=O)C4)[C@H]3CC[C@@]21C | > 20 µg/mL | 
NS(=O)(=O)c1cc2c(cc1Cl)NC(CC1CCCC1)NS2(=O)=O (configuration not stated) | > 20 µg/mL | 
CC(C)(C)NCC(O)c1cc(O)cc(O)c1 (configuration not stated) | > 20 µg/mL | 
CC[N+](CC)(CC)CCOc1cccc(OCC[N+](CC)(CC)CC)c1OCC[N+](CC)(CC)CC | > 20 µg/mL | 
CNC(C)(C)Cc1ccccc1 | > 20 µg/mL | 
CC/C(=C(\c1ccccc1)c1ccc(OCCN(C)C)cc1)c1ccccc1 | 4.89 µg/mL (≈ 13.2 µM) | > 6 µg/mL
CCc1oc2ccccc2c1C(=O)c1cc(Br)c(O)c(Br)c1 | > 20 µg/mL | 
NC(=O)NC1NC(=O)NC1=O (configuration not stated) | > 20 µg/mL | 
CCCCC[C@H](O)/C=C/[C@@H]1[C@@H](C/C=C/CCCC(=O)O)[C@@H](O)C[C@H]1O | > 20 µg/mL | 

Structure (SMILES) | IC50 | CC50
Cc1ccccc1C(OCCN(C)C)c1ccccc1 (configuration not stated) | > 20 µg/mL | 
COC(=O)C1=C(C)NC(C)=C(C(=O)OCCN(C)Cc2ccccc2)C1c1cccc([N+](=O)[O-])c1 (configuration not stated) | > 20 µg/mL | 
COc1ccccc1N1CCN(CCCCNC(=O)c2ccc3ccccc3c2)CC1 | > 20 µg/mL | 
CNCC(O)c1ccc(O)cc1 (configuration not stated) | > 20 µg/mL | 
Cc1cnc(C(=O)NCCc2ccc(S(=O)(=O)NC(=O)NC3CCCCC3)cc2)cn1 | > 20 µg/mL | 
CN1CCOC(c2ccccc2)c2ccccc2C1 (configuration not stated) | > 20 µg/mL | 
CCCCNc1ccc(C(=O)OCCN(C)C)cc1 | > 20 µg/mL | 
COc1ccccc1N1CCN(CCCNc2cc(=O)n(C)c(=O)n2C)CC1 | > 20 µg/mL | 
CCNCC(O)c1cccc(O)c1 (configuration not stated) | > 20 µg/mL | 
O=C(/C=C/C=C/c1ccc2c(c1)OCO2)N1CCCCC1 | > 20 µg/mL | 
CCN(CC)Cc1cc(Nc2ccnc3cc(Cl)ccc23)ccc1O | > 20 µg/mL | > 6 µg/mL
CC(=O)N[C@@H](CC(=O)N[C@H](CCC(=O)O)C(=O)O)C(=O)O | > 20 µg/mL | 
CC(C)NCC(O)c1cc(O)cc(O)c1 (configuration not stated) | > 20 µg/mL | 
C#CCN(C)CCCOc1ccc(Cl)cc1Cl | > 20 µg/mL | 
O=C(O)CN(CCN(CC(=O)O)CC(=O)O)CCN(CC(=O)O)CC(=O)O | > 20 µg/mL | 
Cn1c(=O)c2c(ncn2CCO)n(C)c1=O | > 20 µg/mL | 
CNCCCN1c2ccccc2CCc2ccccc21 | > 19.2 µg/mL | 
Cc1cccc(Nc2ccccc2C(=O)O)c1C | > 20 µg/mL | 
C[n+]1ccccc1/C=N/O | > 20 µg/mL | 
CCN(CC)CCNC(=O)COc1ccc(OC)cc1 | > 20 µg/mL | 
Clc1ccc(C(Cn2ccnc2)OCc2csc3c(Cl)cccc23)c(Cl)c1 (configuration not stated) | 2.41 µg/mL (≈ 5.51 µM) | > 6 µg/mL
CC(=O)OCC1=C(C(=O)O)N2C(=O)[C@@H](NC(=O)Cc3cccs3)[C@H]2SC1 | > 20 µg/mL | 
CC1(C)S[C@@H]2[C@H](NC(=O)Cc3ccccc3)C(=O)N2[C@H]1C(=O)O | > 20 µg/mL | 
O=C1CCC(N2C(=O)c3ccccc3C2=O)C(=O)N1 (configuration not stated) | > 20 µg/mL | 
NCC[C@H](O)C(=O)N[C@@H]1C[C@H](N)[C@@H](O[C@H]2O[C@H](CN)[C@@H](O)[C@H](O)[C@H]2O)[C@H](O)[C@H]1O[C@H]1O[C@H](CO)[C@@H](O)[C@H](N)[C@H]1O | < 0.04 µg/mL | 
CNC(=O)Oc1ccc2c(c1)[C@]1(C)CCN(C)[C@@H]1N2C | > 20 µg/mL | 

Structure (SMILES) | IC50 | CC50
CN1CCC(OC(c2ccccc2)c2ccccc2)CC1 | > 20 µg/mL | 
CN(C)C(=O)Oc1cccc([N+](C)(C)C)c1 | > 20 µg/mL | 
CN(C)CCCN1c2ccccc2CCc2ccccc21 | > 20 µg/mL | 
NC(CO)C(=O)NNCc1ccc(O)c(O)c1O (configuration not stated) | > 20 µg/mL | 
NCCC[C@H](N)CC(=O)N[C@H]1CNC(=O)[C@H]([C@H]2C[C@H](O)NC(N)=N2)NC(=O)/C(=C/NC(N)=O)NC(=O)[C@H](CO)NC(=O)[C@H](CO)NC1=O (β3hOrn-[Dap]SS[ΔAla(Z-3-ureido)][X2]; lactam 1-C) | 0.0415 µg/mL (≈ 0.0605 µM) | 
O=C(O)CCCC[C@@H]1SC[C@@H]2NC(=O)N[C@@H]21 | > 20 µg/mL | 
COCC(=O)Nc1c(I)c(C(=O)NCC(O)CO)c(I)c(C(=O)N(C)CC(O)CO)c1I (configuration not stated) | > 20 µg/mL | 
CC1COc2c(N3CCN(C)CC3)c(F)cc3c(=O)c(C(=O)O)cn1c23 (configuration not stated) | 0.057 µg/mL (≈ 0.158 µM) | 
C[C@H](CCC(=O)O)[C@H]1CC[C@H]2[C@@H]3CC[C@@H]4C[C@H](O)CC[C@]4(C)[C@H]3CC[C@]12C | > 20 µg/mL | 
CC(=O)SCC(Cc1ccccc1)C(=O)NCC(=O)OCc1ccccc1 (configuration not stated) | > 20 µg/mL | 
COC(=O)C1=C(C)NC(C)=C(C(=O)OC(C)C)C1c1cccc2nonc12 (configuration not stated) | > 20 µg/mL | 
CC[C@@]1([C@@H]2O[C@@H]([C@H]3O[C@@](O)(CO)[C@H](C)C[C@@H]3C)C[C@@H]2C)CC[C@H]([C@]2(C)CC[C@]3(C[C@H](O)[C@@H](C)[C@@H]([C@@H](C)[C@@H](OC)[C@H](C)C(=O)O)O3)O2)O1 (stereo in doubt) | 2.25 µg/mL (≈ 3.36 µM) | 2.05 µg/mL (≈ 3.05 µM)
CC(C)C(=O)Nc1ccc([N+](=O)[O-])c(C(F)(F)F)c1 | > 20 µg/mL | > 6 µg/mL
CN(C)[C@@H]1C(=O)C(C(N)=O)=C(O)[C@@]2(O)C(=O)C3=C(O)c4c(O)ccc(Cl)c4[C@@H](O)[C@H]3C[C@@H]12 | 1.51 µg/mL (≈ 3.26 µM) | 
CN1Cc2c(N)cccc2C(c2ccccc2)C1 (configuration not stated) | > 20 µg/mL | 
CCN[C@@H]1C[C@H](N)[C@@H](O[C@H]2OC(CN)=CC[C@H]2N)[C@H](O)[C@H]1O[C@H]1OC[C@](C)(O)[C@H](NC)[C@H]1O | > 20 µg/mL | 
CCCOc1ccccc1-c1nc2n[nH]nc2c(=O)[nH]1 | > 20 µg/mL | 
CCN(CC)CCOc1ccc(/C(=C(/Cl)c2ccccc2)c2ccccc2)cc1 | 4.06 µg/mL (≈ 10 µM) | > 6 µg/mL
O=C(c1ccccc1)c1ccc2n1CCC2C(=O)O (configuration not stated) | > 20 µg/mL | 
CCCSc1ccc2nc(NC(=O)OC)[nH]c2c1 | > 20 µg/mL | > 6 µg/mL
C#CCN(C)[C@H](C)Cc1ccccc1 | > 20 µg/mL | 
COc1ccccc1OCC(O)COC(N)=O (configuration not stated) | > 20 µg/mL | 
Cc1cc(N)c2ccccc2[n+]1CCCCCCCCCC[n+]1c(C)cc(N)c2ccccc21 | 1.34 µg/mL | > 6 µg/mL

Source: PubChem BioAssay AID1332 (Southern Research Institute, 2008)
